Test results: patent US20030092624A1 (YISSUM RESEARCH DEVELOPMENT COMPANY OF THE HEBREW …, published 2003)
Results are given in words; binding and its absence hold for the method and conditions named. Some results given as binding are weak or reduced against the parent protein; the word gives no strength. Tags and fused reporters may be left off the sequences shown.

Biological target: non-fused recombinant SP1 secreted by Pichia pastoris (pPIC9K-SP1) (aspen)
Test: SDS-PAGE of heat- and SDS-treated culture medium; self-association of monomers

B1: non-fused recombinant SP1 secreted by Pichia pastoris (pPIC9K-SP1) (protein)
chain: MATRTPKLVKHTLLTRFKDEITREQIDNYINDYTNLLDLIPSMKSFNWGTDLGMESAELNRGYTHAFESTFESKSGLQEYLDSAALAAFAEGFLPTLSQRLVIDYFLY
binding: binds
